Measured values: article PMC10508264, “Exploring the antioxidant, antimicrobial, cytotoxic and biothermodynamic properties of novel morpholine derivative bioactive Mn(II), Co(II) and Ni(II) complexes – combined experimental and theoretical measurements towards DNA/BSA/SARS-CoV-2 3CL^Pro” (RSC Medicinal Chemistry, 2023)

Test system: CT-DNA
Test: DNA binding by UV-vis absorption titration
Settings: for Gibbs free energy change of DNA binding, BH-I / Gibbs free energy change of DNA binding, BH-II / Gibbs free energy change of DNA binding, SK-I / Gibbs free energy change of DNA binding, SK-II / Gibbs free energy change of DNA binding, WS-I / Gibbs free energy change of DNA binding, WS-II: T = 298 K; for Δλ nm (red shift on DNA binding): Tris-HCl pH 7.4, 25 °C
Protocol: The DNA-binding experiment was conducted with an electronic absorption spectrophotometer by raising the DNA concentration from zero to 50 μM to the given concentration of all samples (50 μM) in Tris-HCl buffer (5 mM Tris-HCl/50 mM NaCl) with a pH of 7.4 at 25 °C.[13,23–26]
Most medications involve intercalation and groove binding via GC (guanine/cytosine)-rich and AT (adenine/thymine)-rich domains, respectively. The interactions were determined experimentally by electronic absorption spectrum titration. Moreover, intercalating binding is indicated by bathochromic and hypochromic shifts in the absorption spectra, whereas groove binding of the complexes with DNA is indicated by hyperchromic shifts in the titration curve.[61] Generally, four kinds of non-covalent engagements that can be absolutely critical in the interaction of substances with DNA are most frequently illustrated in the literature: (i) involves a negatively charged phosphate fragment as a result of electrostatic interaction; (ii) influences weak van der Waals force attraction/H-bonding; (iii) interaction of a functional moiety with the grooves (major/minor) of the double-stranded DNA as a result of a molecule sticking due to general attraction, or as a result of water or H-bonding expulsion, etc.; (iv) the stacked base pairs of natural DNA are intercalated by hydrophobic forces. Nevertheless, substances are engaged in the reaction because of […] preferred N-7 position and adenine's N-3 location in DNA. The DNA base pairing may also be prevented due to miscoding. All complexes (1–3), including free ligand (HL), were measured both when DNA was present and when it was absent using ultraviolet–visible spectrophotometric absorption titrations in buffer solution with a pH of 7.4 at 25 °C (Fig. 3). In this case, all substances were exposed to two prominent electronic absorption bands of about 260 nm and 335–343 nm, consequent to the π–π* transitions of the phenyl chromophore and MLCT, respectively. While the amount of DNA in each compound rises, the interaction of the chemical substance with DNA base pairs generates noticeable alterations in the strength and wavelength of the intra-ligand charge transfer bands. […] Using Wolfe–Shimmer eqn (1) and (2), Benesi–Hildebrand eqn (3) and (4) and Sakthi–Krause eqn (5) and (6), the observed overall Kb values for all samples were in the following sequence: (2) > (3) > (1) > (HL). […] It is concluded that the co-planarity of the morpholine-linked ligand and complexation of the 2,2′-bipyridine aromatic system with the metal centre promote the ability of the complex to infiltrate DNA base pairs smoothly. Large aromatic systems may also assist the complex to deeply penetrate the core of the phosphate backbone, and those substances may permit the complex to freely penetrate deep into the DNA base pairs. […] The Wolfe–Shimmer eqn (1) and (2),[62] Benesi–Hildebrand eqn (3) and (4),[63] and Sakthi–Krause eqn (5) and (6) were applied to evaluate the Kb results for all samples, which were obtained by modification of the Lineweaver–Burk and Stern–Volmer equations (Table 1).
The Kb values were measured using the Wolfe–Shimmer eqn (1) and (2) from the linear regression plots of [DNA]/(εa − εf) vs. [DNA] M^−1 for method I and (εb − εf)/(εa − εf) vs. 1/[DNA] M^−1 for method II, respectively (Fig. S15 ^†). The Benesi–Hildebrand binding constant (Kb) values were measured using eqn (3) and (4) from the linear regression plots of [1/(Ax − A0)] vs. {1/[DNA]} M^−1 for method I and [(Amax − A0)/(Ax − A0)] vs. {1/[DNA]} M^−1 for method II, respectively (Fig. S16 ^†). The Kb values were estimated using Sakthi–Krause eqn (5) and (6) from the linear regression plots of [A/(A0 − A)] vs. {1/[DNA]} M^−1 for method I (Fig. S17 ^†) and {1/[DNA]} vs. log[A/(A0 − A)] M^−1 for method II (Fig. S18 ^†). In addition, A0 and A represent the absorbance intensity values in the absence and presence of [DNA], respectively. […]

SMILES | Gibbs free energy change of DNA binding, BH-I | Gibbs free energy change of DNA binding, BH-II | Gibbs free energy change of DNA binding, SK-I | Gibbs free energy change of DNA binding, SK-II | Gibbs free energy change of DNA binding, WS-I | Gibbs free energy change of DNA binding, WS-II | Δλ nm (red shift on DNA binding)
[Mn+2].[O-]c1ccccc1N=Cc1ccc(N2CCOCC2)cc1.[O-]c1ccccc1N=Cc1ccc(N2CCOCC2)cc1.c1ccc(-c2ccccn2)nc1 [(1)] | -5.449 kcal/mol | -5.896 kcal/mol | -5.514 kcal/mol | -5.875 kcal/mol | -5.808 kcal/mol | -5.889 kcal/mol | 04 nm
[Co+2].[O-]c1ccccc1N=Cc1ccc(N2CCOCC2)cc1.[O-]c1ccccc1N=Cc1ccc(N2CCOCC2)cc1.c1ccc(-c2ccccn2)nc1 [(2)] | -5.48 kcal/mol | -5.908 kcal/mol | -5.693 kcal/mol | -5.935 kcal/mol | -5.827 kcal/mol | -5.903 kcal/mol | 04 nm
[Ni+2].[O-]c1ccccc1N=Cc1ccc(N2CCOCC2)cc1.[O-]c1ccccc1N=Cc1ccc(N2CCOCC2)cc1.c1ccc(-c2ccccn2)nc1 [(3)] | -5.808 kcal/mol | -5.891 kcal/mol | -5.609 kcal/mol | -5.877 kcal/mol | -5.808 kcal/mol | -5.901 kcal/mol | 05 nm
Oc1ccccc1N=Cc1ccc(N2CCOCC2)cc1 [(HL), 2-(4-morpholinobenzylideneamino)phenol] | -5.151 kcal/mol | -5.851 kcal/mol | -5.378 kcal/mol | -5.779 kcal/mol | -5.7 kcal/mol | -5.712 kcal/mol | 04 nm
